All entries are inconclusive by the source's own rule. Clear calls are listed elsewhere. Rule for the calls: active = hit-call score of the fitted dose curve at least 0.9, where 1 is the maximum; inconclusive = response in the unintended direction; inactive = score below 0.9. Where the call is inconclusive, the potency comes from a doubtful curve fit.
Molecular target: human Serotonin Receptor 5-HT1A, HTR1A (gene 3350) (UniProt P08908)
Test: ERF_FR_GPCR_hHTR1A: Eurofins (ERF) G Protein-Coupled Receptor (GPCR) Radioligand Binding LeadHunter Assay for human Serotonin Receptor 5-HT1A Agonism, conducted at France lab site
Procedure: ERF_FR_GPCR_hHTR1A is a biochemical, single-readout assay that uses extracted gene-proteins in a cell-free assay. Measurements were taken 1 hour after chemical dosing in a 96-well plate. See 5-HT1A Human Serotonin GPCR Binding (Agonist Radioligand) Assay, Cerep.ERF_FR_GPCR_hHTR1A is an assay component calculated from the ERF_FR_GPCR_hHTR1A assay. It is designed to measure radioligand binding using a type of binding reporter as detected by scintillation counting with radiometry technology.Data from the assay component ERF_FR_GPCR_hHTR1A was analyzed at the assay endpoint, ERF_FR_GPCR_hHTR1A, in the positive analysis fitting direction relative to DMSO as the negative control and baseline of activity. Using a type of binding reporter, gain-of-signal activity can be used to understand changes in binding as they relate to gene HTR1A. To generalize the intended target to other relatable targets, this assay endpoint is annotated to the gpcr intended target family, where the subfamily is serotonin.
Human cells are incubated for 60 minutes at room temprature with [3H]8-OH-DPAT ligand (0.5 nM) and 8-OH-DPAT as control inhibitor. Test Sample Requirements: Minimum for 1) Screen: 60 ul of 10 mM stock -OR- 1 mg (pre-weighed) for 10 uM final testing. 2) Dose Response: 90 ul of 10 mM stock -OR- 1 mg (pre-weighed) for a top concentration at 10 uM.

Protein sequences, listed by entry. Tags and fused reporters are not part of them.
UniProt P08908, whole entry, looked up: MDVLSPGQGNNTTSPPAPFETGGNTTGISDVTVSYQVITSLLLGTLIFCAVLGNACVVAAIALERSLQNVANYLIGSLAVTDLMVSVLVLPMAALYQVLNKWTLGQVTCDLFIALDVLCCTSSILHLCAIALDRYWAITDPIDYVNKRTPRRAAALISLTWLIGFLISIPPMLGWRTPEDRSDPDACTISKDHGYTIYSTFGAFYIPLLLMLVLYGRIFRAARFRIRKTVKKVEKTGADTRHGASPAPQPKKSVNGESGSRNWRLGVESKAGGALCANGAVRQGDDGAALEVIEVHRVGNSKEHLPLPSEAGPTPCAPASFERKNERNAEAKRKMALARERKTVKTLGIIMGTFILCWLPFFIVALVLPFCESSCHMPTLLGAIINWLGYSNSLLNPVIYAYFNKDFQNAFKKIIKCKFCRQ

| SMILES | AC50 |
| --- | --- |
| COc1cc(CCC(=O)CC(=O)CCc2ccc(O)c(OC)c2)ccc1O | inconclusive: 25.5 nM |
